Reference: patent US20030055103A1, “Utilization of achyrocline satureoides ("Marcela") extracts and liposomal preparations of natural and semi-synthetic flavonoids for the prevention and treatment of the consequences of stroke and neurodegenerative diseases” (priority 2001, published 2003)
For at least one compound, name, drawing or mass did not settle the structure.

Tested on: spontaneous lipoperoxidation of rat's brain membranes
Assay: Spontaneous lipoperoxidation of rat brain membranes (malondialdehyde production)
Type: biochemical
Conditions: inhibition of spontaneous lipoperoxidation

## C[C@@H]1O[C@@H](OC[C@H]2O[C@@H](Oc3c(-c4ccc(O)c(O)c4)oc4cc(O)cc(O)c4c3=O)[C@H](O)[C@@H](O)[C@@H]2O)[C@H](O)[C@H](O)[C@H]1O [Rutin]
  IC50: 19.2 µM
